Source: publication PMC7819943, “Rice protein-binding microarrays: a tool to detect cis-acting elements near promoter regions in rice”
This is one part of the list.

The chains behind the UniProt entries cited, without tags or fusion partners.
UniProt Q0JBA9, entry or part of it: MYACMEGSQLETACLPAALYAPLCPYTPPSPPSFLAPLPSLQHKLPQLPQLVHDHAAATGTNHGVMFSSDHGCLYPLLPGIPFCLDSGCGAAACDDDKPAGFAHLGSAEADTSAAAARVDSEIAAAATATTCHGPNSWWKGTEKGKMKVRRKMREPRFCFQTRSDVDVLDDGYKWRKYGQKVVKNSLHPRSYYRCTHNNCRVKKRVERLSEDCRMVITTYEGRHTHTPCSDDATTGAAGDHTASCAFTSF

molecular target: OsWRKY34 (Oryza sativa, UniProt Q0JBA9 1-250); test: protein-binding microarray (RPBM); PBS, 2% BSA, 51.3 ng/ul salmon testes DNA, 50 uM zinc acetate, 200 nM TF, 25 C, 1 h; high values mean tight binding; details: protein: recombinant; tags: N-terminal polyhistidine and DsRed monomer fusion (pET32a); label: CyDye5-dUTP incorporated in the synthesized complementary strand; 3' TTTTT single-stranded linker to array surface; dsDNA, one strand shown
In short: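 Polyhistidine-tagged DsRed fusions of transcription factors, joined at the N-terminus, were expressed in E. coli BL21-CodonPlus and isolated on Ni–NTA. They were incubated at 200 nM for 1 h at 25 °C on a custom Agilent array, double-stranded and BSA-blocked, in PBS with 2% BSA, salmon testes DNA and 50 µM zinc acetate. The binding signal is per-feature fluorescence intensity (arbitrary units) read on an Axon 4000B scanner after washing.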

Sequence | binding signal
TCTAATGATCAACTCATCTACTGCTAGTTTTGTTAAACCCCGGAGTCACCTAGTGCAG | 9010 fluorescence intensity (a.u.)
TGGGTATTGGGTATTATATTGCGAGAGATAGAGAGAGATGCGGAGTCACCTAGTGCAG | 10300 fluorescence intensity (a.u.)
CGCCACAGCTCGTAATGTACAGCACCGATCACACCGATACCGGAGTCACCTAGTGCAG | 8520 fluorescence intensity (a.u.)
TTTCGTGTACCCACATGCCTAGCTATCTCGTATGCACATCCGGAGTCACCTAGTGCAG | 9830 fluorescence intensity (a.u.)
CGGATGCTCTCGTTTCTCCAGCGTCAATCGCGCCCGCTTACGGAGTCACCTAGTGCAG | 9490 fluorescence intensity (a.u.)
TGGATGTGGTTTTAATTTGGTTTTAATATTCTTTTTAGACCGGAGTCACCTAGTGCAG | 11700 fluorescence intensity (a.u.)
GTTGTTTAGTAAGTCTAATGGGTCATTTGCATTGTATAGTCGGAGTCACCTAGTGCAG | 9620 fluorescence intensity (a.u.)
ATTCTCAAGTTTGAATTGGGTGTATTGGGTTGGGCTAAATCGGAGTCACCTAGTGCAG | 16700 fluorescence intensity (a.u.)
AGGAGTGTCTGGTTGGTTTCCGGGGTGTGTTGGGTGACTCCGGAGTCACCTAGTGCAG | 29500 fluorescence intensity (a.u.)
ACGACGAGCTCCATGGTCTCCGCGCGGCGCGCGCTCCTTCCGGAGTCACCTAGTGCAG | 12100 fluorescence intensity (a.u.)
GAGATTAGTGGTGTGGTTTTCTTATCGATTTGTGCATTGGCGGAGTCACCTAGTGCAG | 8990 fluorescence intensity (a.u.)
GTCCGTCTACACCTATCTGGGTCTGAAAGAGTCGACGACACGGAGTCACCTAGTGCAG | 9150 fluorescence intensity (a.u.)
GCCGACCCGATCCCACCCGAGTCCTTCCCTGTGCGCGCACCGGAGTCACCTAGTGCAG | 9510 fluorescence intensity (a.u.)
ATCTGAACAACCCCTATATCTCGATTGCCCATTGAATTTCCGGAGTCACCTAGTGCAG | 8160 fluorescence intensity (a.u.)
CAACGTACACTCTATACTATGCCTAGTTTAACAACACAATCGGAGTCACCTAGTGCAG | 9010 fluorescence intensity (a.u.)
AATTGCCGCACTAACTCCATTGTTCATCTCTAGTTTTACTCGGAGTCACCTAGTGCAG | 10300 fluorescence intensity (a.u.)
CCTCCACCATTCAATTTTCCCACCTACTTTCACTTATTATCGGAGTCACCTAGTGCAG | 13900 fluorescence intensity (a.u.)
CCAAATGTGGAGATTTGGGGTGGGCGCGCAAGGTGTTTGACGGAGTCACCTAGTGCAG | 8050 fluorescence intensity (a.u.)
ATGTCGCCTACCATTATCATCTGGGTTTGGCCTGTTAGTGCGGAGTCACCTAGTGCAG | 10000 fluorescence intensity (a.u.)
CACAACTCCAGCGACCGCCCACCCGCCATCCTGCCTGCCGCGGAGTCACCTAGTGCAG | 8640 fluorescence intensity (a.u.)
TCAGCCAAATTCTCTGTACGGCCAGCAGCTGCGCATCTCACGGAGTCACCTAGTGCAG | 8440 fluorescence intensity (a.u.)
ACCGTGCTGTTGTTACTTGTTCTTGTTCTCACAGTATAAGCGGAGTCACCTAGTGCAG | 12400 fluorescence intensity (a.u.)
TTAGTACTACTGGTTCTTCTAGTAACAGCATACATTCATTCGGAGTCACCTAGTGCAG | 8450 fluorescence intensity (a.u.)
TTAAACTGTATACCGTCGCTCGCGTCGCGCGCCGTTGACGCGGAGTCACCTAGTGCAG | 9730 fluorescence intensity (a.u.)
TGTTTTTCTACTTATTTTCCATCCGCTTGTTCCTAGTTATCGGAGTCACCTAGTGCAG | 8030 fluorescence intensity (a.u.)
GATCTCCGCCTCCGACTTTGCTTCGATCTAATCTTCTTTCCGGAGTCACCTAGTGCAG | 9450 fluorescence intensity (a.u.)
GTCGATCGGGAATTTCTGTGACAGTTTTCACCCCTTGAAACGGAGTCACCTAGTGCAG | 8190 fluorescence intensity (a.u.)

An excerpt of these results, tab-delimited:
Sequence	binding signal
CGCCACAGCTCGTAATGTACAGCACCGATCACACCGATACCGGAGTCACCTAGTGCAG	8520 fluorescence intensity (a.u.)
TGGATGTGGTTTTAATTTGGTTTTAATATTCTTTTTAGACCGGAGTCACCTAGTGCAG	11700 fluorescence intensity (a.u.)
GAGATTAGTGGTGTGGTTTTCTTATCGATTTGTGCATTGGCGGAGTCACCTAGTGCAG	8990 fluorescence intensity (a.u.)
CAACGTACACTCTATACTATGCCTAGTTTAACAACACAATCGGAGTCACCTAGTGCAG	9010 fluorescence intensity (a.u.)

Continued:

Sequence | binding signal
GCCAACAACTCAGTCCCTAACGCCGCCGCCAATCTCGCCGCGGAGTCACCTAGTGCAG | 8390 fluorescence intensity (a.u.)
TCGCGGCCTCGCGCTCACCGCCGCCGGAATCCGGCTGACCCGGAGTCACCTAGTGCAG | 8580 fluorescence intensity (a.u.)
GTTTACTTGTACCCACACCCACTGTCTCGTATTCTATTCCCGGAGTCACCTAGTGCAG | 11200 fluorescence intensity (a.u.)
CTGCTAGAATGTTTGTGGTCTGCCTTGTCCGTCCTTCATTCGGAGTCACCTAGTGCAG | 9000 fluorescence intensity (a.u.)
ATGAGCCCTTTGATTCTGTCAACCGTGTGCAGCATTGTTTCGGAGTCACCTAGTGCAG | 8900 fluorescence intensity (a.u.)
AAACGCCCTGACCGACTAACCCTCGCCACCGAGCAAACTCCGGAGTCACCTAGTGCAG | 8700 fluorescence intensity (a.u.)
ATGCTCATTCCATTATTTTGCATAGGATTTCAATCCTATACGGAGTCACCTAGTGCAG | 9850 fluorescence intensity (a.u.)
TCCCATTGTAGGGCACGATCTCCGACTCTCCGTCTTCTACCGGAGTCACCTAGTGCAG | 14000 fluorescence intensity (a.u.)
AAATGCAGTTCCAAACATGGGCTGGGTTACACCAAATCCTCGGAGTCACCTAGTGCAG | 8790 fluorescence intensity (a.u.)
TTTCTCCTTTTTGAACTTCTCTTTGCACTTAAAGCTTTATCGGAGTCACCTAGTGCAG | 11500 fluorescence intensity (a.u.)
CTCTTCTTCTTCCACGCGCCAGTCTCCTCCAAACTCGTCGCGGAGTCACCTAGTGCAG | 8780 fluorescence intensity (a.u.)
ACGTACGAACAAGGCAACAGCACACTCCAGTACTCCACATCGGAGTCACCTAGTGCAG | 8990 fluorescence intensity (a.u.)
CATCATAGATCGTTCACACGTCTCAACATCCCAAATTATCCGGAGTCACCTAGTGCAG | 9520 fluorescence intensity (a.u.)
CCTCGCACCTCATGTGTTTGCTGCCTGGAGCAAAGGATTTCGGAGTCACCTAGTGCAG | 8900 fluorescence intensity (a.u.)
CTCCGTATCTGGTTTTGCGGTTAAGCGACATGAATAAAACCGGAGTCACCTAGTGCAG | 9970 fluorescence intensity (a.u.)
TAACCGTCAGCCCCGTCCTGTTCCCTAACAAATCCACCACCGGAGTCACCTAGTGCAG | 9540 fluorescence intensity (a.u.)
CTTTCCTGTACTATTTTACTGTCCGATTTACAACATGTGACGGAGTCACCTAGTGCAG | 12900 fluorescence intensity (a.u.)
ACCCATATGGACATGCATGTCCATCCTGCCAGGACGCAGACGGAGTCACCTAGTGCAG | 8610 fluorescence intensity (a.u.)
GTACTCCTATCCTGCTGGATTCACTGACACTAATGACTCGCGGAGTCACCTAGTGCAG | 10700 fluorescence intensity (a.u.)
TCCCTCGTTTTTCACGTGCACGCTTTTCAAACTGTTAAATCGGAGTCACCTAGTGCAG | 9020 fluorescence intensity (a.u.)
TCCCCGCGCATGTGAACTCAAACCCATCCGATCGGTTGACCGGAGTCACCTAGTGCAG | 12800 fluorescence intensity (a.u.)
GGTCCTAATTAATTATTTGCATGCATCCATGCCTTATATTCGGAGTCACCTAGTGCAG | 8390 fluorescence intensity (a.u.)
GATTCAACATAATATTTTACGAAGTTGTGTTTCGGCGCTTCGGAGTCACCTAGTGCAG | 8610 fluorescence intensity (a.u.)
GCATTTTATAGTACAGCCAGTTGTTGTTGAGCTTTCAGTCCGGAGTCACCTAGTGCAG | 11700 fluorescence intensity (a.u.)
CTACCAACCGTGGACTAGTATTACCTGCTGACCAACCGACCGGAGTCACCTAGTGCAG | 9740 fluorescence intensity (a.u.)
ATGAAAGGTGTACATGATGTGTTCCATATTTCCATGCTGACGGAGTCACCTAGTGCAG | 8150 fluorescence intensity (a.u.)
TCTGTGGCCAGTTTTCGTCGACATGTTACTCCGCAGAAGTCGGAGTCACCTAGTGCAG | 8870 fluorescence intensity (a.u.)
